The record followed here is PMC4345284.

The chains behind the UniProt entries cited, without tags or fusion partners.
UniProt Q90988: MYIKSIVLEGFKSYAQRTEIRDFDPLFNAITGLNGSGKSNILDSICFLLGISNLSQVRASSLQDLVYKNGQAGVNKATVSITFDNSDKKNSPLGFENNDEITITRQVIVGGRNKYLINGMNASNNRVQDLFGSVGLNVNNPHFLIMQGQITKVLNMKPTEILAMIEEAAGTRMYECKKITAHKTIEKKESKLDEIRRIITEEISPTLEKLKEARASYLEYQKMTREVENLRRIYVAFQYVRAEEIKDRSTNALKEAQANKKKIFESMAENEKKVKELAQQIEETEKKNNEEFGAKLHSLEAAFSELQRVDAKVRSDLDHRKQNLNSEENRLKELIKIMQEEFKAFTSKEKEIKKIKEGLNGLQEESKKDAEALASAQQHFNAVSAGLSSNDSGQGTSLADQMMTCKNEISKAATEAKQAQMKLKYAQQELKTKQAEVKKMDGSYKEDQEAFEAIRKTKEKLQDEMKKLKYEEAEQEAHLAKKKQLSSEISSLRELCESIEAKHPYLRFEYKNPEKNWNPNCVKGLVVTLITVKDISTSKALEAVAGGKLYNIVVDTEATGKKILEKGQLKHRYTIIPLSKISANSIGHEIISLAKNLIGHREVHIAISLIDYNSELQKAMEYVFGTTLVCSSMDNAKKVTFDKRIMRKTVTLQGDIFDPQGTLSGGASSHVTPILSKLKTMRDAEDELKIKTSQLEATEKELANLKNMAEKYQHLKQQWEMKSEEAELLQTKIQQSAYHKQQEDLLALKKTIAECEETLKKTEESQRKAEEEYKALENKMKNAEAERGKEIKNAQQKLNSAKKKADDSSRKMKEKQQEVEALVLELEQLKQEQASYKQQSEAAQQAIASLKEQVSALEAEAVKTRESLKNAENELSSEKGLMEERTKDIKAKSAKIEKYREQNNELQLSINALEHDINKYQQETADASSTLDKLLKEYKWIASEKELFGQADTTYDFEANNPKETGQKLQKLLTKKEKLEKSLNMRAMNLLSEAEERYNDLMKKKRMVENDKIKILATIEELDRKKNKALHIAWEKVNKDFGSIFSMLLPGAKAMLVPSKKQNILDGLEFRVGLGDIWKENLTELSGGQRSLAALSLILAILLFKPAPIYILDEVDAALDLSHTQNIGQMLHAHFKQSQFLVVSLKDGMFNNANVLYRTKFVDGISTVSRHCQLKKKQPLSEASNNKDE
UniProt A0A1D5PE93: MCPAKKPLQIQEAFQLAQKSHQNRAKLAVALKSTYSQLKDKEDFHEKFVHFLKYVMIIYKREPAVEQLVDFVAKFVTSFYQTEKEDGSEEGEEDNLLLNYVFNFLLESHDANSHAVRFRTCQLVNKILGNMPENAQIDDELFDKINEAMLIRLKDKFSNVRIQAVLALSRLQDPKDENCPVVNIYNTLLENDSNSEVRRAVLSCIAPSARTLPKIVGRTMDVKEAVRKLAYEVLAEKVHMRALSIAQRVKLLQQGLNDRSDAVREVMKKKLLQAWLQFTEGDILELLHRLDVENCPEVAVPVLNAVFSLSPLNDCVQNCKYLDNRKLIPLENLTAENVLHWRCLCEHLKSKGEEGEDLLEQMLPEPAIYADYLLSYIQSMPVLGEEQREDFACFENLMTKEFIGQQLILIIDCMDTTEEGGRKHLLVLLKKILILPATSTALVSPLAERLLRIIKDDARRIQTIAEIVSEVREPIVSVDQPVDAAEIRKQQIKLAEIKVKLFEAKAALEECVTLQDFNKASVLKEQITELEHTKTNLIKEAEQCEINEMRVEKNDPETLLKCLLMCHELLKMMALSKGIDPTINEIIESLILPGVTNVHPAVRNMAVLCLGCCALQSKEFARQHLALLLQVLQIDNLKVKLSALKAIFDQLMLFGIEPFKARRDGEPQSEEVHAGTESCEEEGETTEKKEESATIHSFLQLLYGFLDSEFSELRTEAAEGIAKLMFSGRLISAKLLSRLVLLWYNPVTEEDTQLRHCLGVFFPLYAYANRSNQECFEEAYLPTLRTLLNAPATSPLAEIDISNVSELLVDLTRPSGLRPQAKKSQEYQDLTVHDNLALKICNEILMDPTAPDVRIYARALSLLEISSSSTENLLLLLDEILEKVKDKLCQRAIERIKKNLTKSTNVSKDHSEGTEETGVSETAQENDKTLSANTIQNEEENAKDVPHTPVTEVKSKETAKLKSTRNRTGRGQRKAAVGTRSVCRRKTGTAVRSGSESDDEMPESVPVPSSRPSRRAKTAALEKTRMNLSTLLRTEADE

These are yes or no findings as the source states them, for the method shown. In cells and extracts the contact can be indirect.

This test concerns the target streptavidin-binding peptide (SBP)-tagged SMC2 (chicken) (UniProt Q90988). The experiment in a line: pull-down; SBP-tagged SMC2 captured from mitotic DT40 cell lysate on streptavidin-sepharose, 2 h at 4°C; 50 mM HEPES, 0.25 M NaCl, 0.5% NP-40; eluted with 4 mM biotin; SDS-PAGE.

For the substance CAP-G (from UniProt A0A1D5PE93 1-1038), the binding entry is “no binding”.
